The record followed here is article doi:10.1101/2023.01.05.522938.

No constants are given. Whether binding was seen depends on the method and setting. In cells and extracts the contact can be indirect. Here binding means that the protein was enriched with, or labelled near, the bait; the list need not be complete.

Assay [1] concerns the target CPN60A (Chlamydomonas reinhardtii (endogenous in strain CW15(2)/CF185)). The assay is described as follows: affinity purification with mass spectrometry.
The target of assay [2] is CPN20 (Chlamydomonas reinhardtii (endogenous in strain CW15(2)/CF185)). Briefly: affinity purification with mass spectrometry.

B1: GAPA1 (glyceraldehyde-3-phosphate dehydrogenase A subunit) (protein, UniProt P50362 35-374)
chain: EKKIRVAINGFGRIGRNFLRCWHGRQNTLLDVVAINDSGGVKQASHLLKYDSTLGTFAADVKIVDDSHISVDGKQIKIVSSRDPLQLPWKEMNIDLVIEGTGVFIDKVGAGKHIQAGASKVLITAPAKDKDIPTFVVGVNEGDYKHEYPIISNASCTTNCLAPFVKVLEQKFGIVKGTMTTTHSYTGDQRLLDASHRDLRRARAAALNIVPTTTGAAKAVSLVLPSLKGKLNGIALRVPTPTVSVVDLVVQVEKKTFAEEVNAAFREAANGPMKGVLHVEDAPLVSIDFKCTDQSTSIDASLTMVMGDDMVKVVAWYDNEWGYSQRVVDLAEVTAKKWVA
Consider B1, for which, in assay [1], the binding entry is recorded as “binds”.

B2: ATPC (gamma subunit of the CF1 head of the chloroplast ATP-synthase) (protein, UniProt P12113 36-358)
chain: GLKEVRDRIASVKNTQKITDAMKLVAAAKVRRAQEAVVNGRPFSENLVKVLYGVNQRVRQEDVDSPLCAVRPVKSVLLVVLTGDRGLCGGYNNFIIKKTEARYRELTAMGVKVNLVCVGRKGAQYFARRKQYNIVKSFSLGAAPSTKEAQGIADEIFASFIAQESDKVELVFTKFISLINSNPTIQTLLPMTPMGELCDVDGKCVDAADDEIFKLTTKGGEFAVEREKTTIETEALDPSLIFEQEPAQILDALLPLYMSSCLLRSLQEALASELAARMNAMNNASDNAKELKKGLTVQYNKQRQAKITQELAEIVGGAAATSG
As for B2, the binding result in assay [2] and in assay [1] was “binds” throughout.
